Experimental data as given in patent US11814372B2, “Agonists of EPHA and their uses” (CASE WESTERN RESERVE UNIVERSITY, priority 2017, dated 2023).
Some results were stated once for a whole list of compounds, not compound by compound.

Sequences of proteins named here, by UniProt entry; tags and fusion partners are left off. Residues count along the entry.
UniProt P29317, 24-976: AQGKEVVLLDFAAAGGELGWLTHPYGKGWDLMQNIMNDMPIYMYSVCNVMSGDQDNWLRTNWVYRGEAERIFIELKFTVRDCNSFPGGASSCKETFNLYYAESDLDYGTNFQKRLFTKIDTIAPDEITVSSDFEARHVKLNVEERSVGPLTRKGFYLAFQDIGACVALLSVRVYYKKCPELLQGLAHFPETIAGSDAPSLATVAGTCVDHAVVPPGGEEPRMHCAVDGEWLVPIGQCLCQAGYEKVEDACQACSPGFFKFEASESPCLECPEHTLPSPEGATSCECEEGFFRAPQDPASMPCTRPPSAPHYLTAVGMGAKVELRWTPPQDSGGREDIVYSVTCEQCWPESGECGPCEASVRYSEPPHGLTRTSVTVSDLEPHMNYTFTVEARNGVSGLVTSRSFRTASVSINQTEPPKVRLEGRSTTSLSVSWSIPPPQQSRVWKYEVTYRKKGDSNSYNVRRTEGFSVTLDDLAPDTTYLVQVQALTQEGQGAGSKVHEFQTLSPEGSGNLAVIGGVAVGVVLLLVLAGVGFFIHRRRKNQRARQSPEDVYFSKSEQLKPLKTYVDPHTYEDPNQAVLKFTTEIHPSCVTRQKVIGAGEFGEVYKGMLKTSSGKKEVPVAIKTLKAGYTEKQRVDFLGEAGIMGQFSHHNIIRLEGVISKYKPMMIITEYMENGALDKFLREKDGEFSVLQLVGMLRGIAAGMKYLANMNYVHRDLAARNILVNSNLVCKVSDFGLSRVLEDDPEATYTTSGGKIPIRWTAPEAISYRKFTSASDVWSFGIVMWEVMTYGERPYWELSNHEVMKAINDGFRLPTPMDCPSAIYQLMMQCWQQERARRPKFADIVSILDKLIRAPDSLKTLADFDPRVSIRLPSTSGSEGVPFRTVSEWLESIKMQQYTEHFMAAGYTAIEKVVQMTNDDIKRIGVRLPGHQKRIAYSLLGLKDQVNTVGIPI

Biological target: EphA2 (Homo sapiens, UniProt P29317)
Test: EphA2 activation in MDA-231-A2 cells (pEphA/B immunoblot, EphA2 immunoprecipitation)
Assay type: cell-based
Set-up: expressed in transfected cells; host or cells: MDA-MB-231 (MDA-231-A2), HEK 293 (HEK 293-A2), A172 (A172-A2), U373 (U373-A2)
Conditions: cell line not restated
Protocol: Cells were plated in 24-well dishes at a density of 100,000 cells/well and grown for 24 hours prior to stimulation with appropriate compounds and ephrins for the given amounts of time. Compounds were prepared in DMSO at 500 times the final concentrations and 0.2% DMSO was used as vehicle control. Following treatment, cells were lysed directly in SDS Gel Loading Buffer and immunoblotted as described previously. Immunoprecipitation and immunofluorescence staining was performed as described. For immunoprecipitation, 300,000 cells/well were plated in 6-well dishes and lysed in modified RIPA Buffer (20 mM Tris-HCl pH 7.4, 20 mM NaF, 150 mM NaCl, 10% glycerol, 0.1% SDS, 0.5% DCA, 2 mM EDTA, 1% Triton X-100) following treatment. Either […] of ephrin-A1-Fc, or […] of EphA2 mouse monoclonal antibody (Clone D7, Millipore) were used, and mouse IgG was used as a negative control for EphA2 IP. To identify small molecule agonists for EphA2, we took a structure-based in silico screening approach. […] This notion was confirmed recently by determination of the crystal structure of the EphA2/ephrin-A1 complex (FIG. 1B). The size falls in the range of common drugs, making EphA2 LBD a desirable target for drug discovery. […]

Structure (SMILES): CC(CCc1ccccc1)NCC(O)c1ccc(O)c(C(N)=O)c1 (centres unmarked) [labetalol]
- concentration needed to activate EphA2 (failed to activate up to): > 500 mM

Structure (SMILES): CC(CCc1ccc(O)cc1)NCCc1ccc(O)c(O)c1 (centres unmarked) [dobutamine]
- concentration needed to activate EphA2 (failed to activate up to): > 500 mM
